Measurements published in the supplement of paper PMC12823440, “Inhibitors supercharge kinase turnover through native proteolytic circuits” (Nature, 2025).
Counter-ions that a name gives are not always drawn. The list shows a part of the results. Hit calls seldom repeat between salt and free forms of one compound.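 In K562 cells expressing nanoluciferase-fused kinases, luminescence was recorded at 4 h intervals between 2 and 18 h, normalized as percent of control with DMSO at 100% and a positive control at 0%. A significant (2 sigma) signal drop marks a time point as decreased. The authors' rule for a hit is not shown and takes in more than the number of time points.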

By UniProt entry, the sequences of proteins in these tests, tags left out. Where a name states a change or a piece, a line headed by the entry shows the natural chain unless it says otherwise.
UniProt P50613: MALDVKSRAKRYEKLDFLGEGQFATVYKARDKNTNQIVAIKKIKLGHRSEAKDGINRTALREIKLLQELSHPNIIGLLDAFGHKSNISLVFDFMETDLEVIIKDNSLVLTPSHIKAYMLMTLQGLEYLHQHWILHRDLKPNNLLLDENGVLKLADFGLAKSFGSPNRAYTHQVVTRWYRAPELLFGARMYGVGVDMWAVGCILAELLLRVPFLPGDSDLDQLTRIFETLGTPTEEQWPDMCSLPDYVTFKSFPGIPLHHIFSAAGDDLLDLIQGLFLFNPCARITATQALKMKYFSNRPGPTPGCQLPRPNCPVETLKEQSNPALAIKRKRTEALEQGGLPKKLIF

These compounds were tested against CDK7 (UniProt P50613) (assay: number of time points (of 4; 2 h point missing) at which kinase-Nluc abundance scored as decreased, DMSO-normalised (count); higher = more persistent destabilization). Settings: K562; 2-18 h.

`O=C(O)c1cc(N(Cc2ccccc2O)Cc2ccccc2O)ccc1O` [Lavendustin B] (10 µM) and `COc1ccccc1C(=O)/C=C/c1ccccc1C(=O)O` (10 µM) are the same in “number of time points” value: 0 for the first, 0 for the second.

Going from `Cc1ccc2c(Nc3cccc(Cl)c3F)nccc2c1NC(=O)c1csc2c(N)ncnc12` [Belvarafenib] (10 µM) to `Nc1nccc(Oc2ccc(NC(=O)c3c[nH]cc(-c4ccc(F)cc4)c3=O)cc2F)c1Cl` (10 µM), the “number of time points” value rises from 0 to 4.

`Cn1cc(-c2cnc3cnn(S(=O)(=O)c4cnc5ccc(-c6cnn(C)c6)cn45)c3c2)cn1` [Glumetinib] (10 µM) and `Cc1nc(-c2cnn(C)c2)nc2c1[nH]c1ncc(-c3ccc(N4CCN(C)CC4)cc3)cc12` [GNE 220 (hydrochloride)] (10 µM) are the same in “number of time points” value: 0 for the first, 0 for the second.

`CNC(=O)c1ccccc1Oc1nc(Nc2cc(OC)c(OC)c(OC)c2)ncc1Br` (2.5 µM) and `COc1cc2ncnc(Nc3ccccc3)c2cc1OC` (10 µM) are the same in “number of time points” value: 0 for the first, 0 for the second.

`COc1cc(-c2cn[nH]c2)ccc1C(=O)Nc1ccc2c(c1)CCNCC2` (10 µM) and `CNC(=O)c1cc2c(Oc3ccc(NC(=S)NC(=O)Cc4ccccc4)cc3F)ccnc2cc1OC` [TAS-115 mesylate] (10 µM) are the same in “number of time points” value: 0 for the first, 0 for the second.

Compared with `COCCNc1cc(NC(=O)N2CCCc3cc(CN4CCN(C)CC4=O)c(C=O)nc32)ncc1C#N` [Roblitinib] (10 µM), `CCc1cccc(CC)c1NC(=O)N1Cc2[nH]nc(NC(=O)c3ccc(N4CCN(C)CC4)cc3)c2C1` (2.5 µM) is higher in “number of time points” value: 0 for the first, 2 for the second.

`CC(C)c1cc(/C=C(\C#N)C(=O)NCCCc2ccccc2)cc(C(C)C)c1O` (10 µM) and `CC(C)C[C@@H](C(=O)Nc1ccn(C[C@@H](O)CO)n1)N1CC(Oc2ccccc2Cl)=CC1=O` [Dorzagliatin] (10 µM) are the same in “number of time points” value: 0 for the first, 0 for the second.

Going from `C=CCc1ccc(O)c(-c2ccc(O)c(CC=C)c2)c1` [Honokiol] (10 µM) to `CC(C)(C)n1nc(Cc2ccccc2O)c2c(N)ncnc21` (10 µM), the “number of time points” value rises from 0 to 1.

`CNc1nc(Nc2cn(C(C)(C)C#N)nc2C)ncc1C(F)(F)F` (10 µM) and `CCc1cncnc1N1CCN(Cc2nc3ccc(C(F)(F)F)cc3[nH]2)CC1` (10 µM) are the same in “number of time points” value: 0 for the first, 0 for the second.

`C[C@@H]1CCNC(=O)c2cc3ccc(C(=O)Nc4nc5ccccc5n4CCCN(C)C)cc3n21` (10 µM) and `C=CC(=O)Nc1cc(Nc2nccc(-n3cc(CN(C)C)c(-c4ccccc4)n3)n2)c(OC)cc1N1CCOCC1` [Lazertinib] (10 µM) are the same in “number of time points” value: 0 for the first, 0 for the second.

`CCN(CC)CCC(=O)N1N=C(c2c(-c3ccccc3)c3cc(Br)ccc3[nH]c2=O)CC1c1ccc(Br)cc1` (centres undefined) (2.5 µM) and `Cc1c(-c2ccc(C(N)=O)c3[nH]c4cc(C(C)(C)O)ccc4c23)cccc1-n1cnc2ccccc2c1=O` (2.5 µM) are the same in “number of time points” value: 0 for the first, 0 for the second.

Going from `Nc1cccc(-c2cc3c(Oc4cccc(O)c4)ncnc3[nH]2)c1` (10 µM) to `CCCNC(=O)Nc1ccc(Oc2ncnc3cc(OC)c(OC)cc23)cc1Cl` (2.5 µM), the “number of time points” value falls from 2 to 0.

`O=C1NC(=O)/C(=C/c2ccc3nccc(-c4ccncc4)c3c2)S1` (10 µM) and `Cc1cccc(-c2[nH]c(C(C)(C)C)nc2-c2ccc3nccnc3c2)n1` (10 µM) are the same in “number of time points” value: 0 for the first, 0 for the second.

`O=[N+]([O-])c1ccc(Nc2nc(N3CCOCC3)nc(N3CCOCC3)n2)cc1` (10 µM) and `O=c1cc(-c2cccc3c2Sc2ccccc2S3)oc(N2CCOCC2)c1` (10 µM) are the same in “number of time points” value: 0 for the first, 0 for the second.

Compared with `Cc1cc(C)nc(NS(=O)(=O)c2ccc(NC(=S)NC(=O)COc3ccc(Br)cc3Cl)cc2)n1` (2.5 µM), `CC(=O)N1CCC(c2cc(-c3ccc(NC(=O)c4cccn(-c5ccc(F)cc5)c4=O)cc3F)c3c(N)ncnn23)CC1` (0.5 µM) is higher in “number of time points” value: 0 for the first, 1 for the second.

`Cn1cc2cc(C(F)(F)c3nnc4ccc(-c5cnn(C6CC6)c5)nn34)c(F)cc2n1` [Bozitinib] (10 µM) and `CN1CC[C@@H](c2c(O)cc(O)c3c(=O)cc(-c4ccc(C(F)(F)F)cc4Cl)oc23)[C@@H]1CO` [Voruciclib (hydrochloride)] (10 µM) are the same in “number of time points” value: 0 for the first, 0 for the second.

`Oc1cc(O)c2c(c1)OC1(c3ccc(O)c(O)c3)Oc3cc(O)c4c(c3C2C1O)OC(c1ccc(O)c(O)c1)C(O)C4` (centres undefined) [Procyanidin A1] (10 µM) and `CC(=O)c1c(C)c2cnc(Nc3ccc(N4CCN(C(=O)CNc5cccc6c5C(=O)N(C5CCC(=O)NC5=O)C6=O)CC4)cn3)nc2n(C2CCCC2)c1=O` (centres undefined) (10 µM) are the same in “number of time points” value: 0 for the first, 0 for the second.

`c1ccc(-c2nc(=NCCN3CCOCC3)sn2-c2ccccc2)cc1` [VP3.15 (dihydrobromide)] (10 µM) and `CC/C(=N\NC(=O)c1ccnc(NCCCN2CCOCC2)c1)c1ccc(Cl)cc1O` (2.5 µM) are the same in “number of time points” value: 0 for the first, 0 for the second.

First: NC(=O)N1CCC(CC(=O)N2CCC([C@H]3c4ncc(Br)cc4CCc4cc(Cl)cc(Br)c43)CC2)CC1 [Lonafarnib] (2.5 µM)
Second: CC(C)CNc1ccnc(NCc2csc(-c3ccccc3)n2)n1 [KHS101 hydrochloride] (2.5 µM)
The “number of time points” value of the first is lower: 0 for the first, 1 for the second.

For `CC(C)(C[C@H](N)C(=O)O)C(F)F` [NV-5138 (hydrochloride)] (10 µM), the “number of time points” value was 0.
